Source: publication PMC9733932

Legend:
[1] = tested on: CtINO80 A-module Arp8.1 N34A,Q35A,K36A,N37A,Y38A,K44A (Chaetomium thermophilum); assay: fluorescence anisotropy; details: 2 mM Mg2+, sliding defect not explained by simple affinity loss; FA: 25 mM Hepes pH 8, 100 mM KCl, 2 mM MgCl2, 2% glycerol, 0.01% Triton X-100, 1 mM DTT, 5 nM DNA, room temp; recombinant protein; protein details: FLAG on Ino80; label: 5' 6-FAM on strand 1
[2] = tested on: CtINO80 A-module Arp8dN (Chaetomium thermophilum); assay: fluorescence anisotropy; details: 2 mM Mg2+; FA: 25 mM Hepes pH 8, 100 mM KCl, 2 mM MgCl2, 2% glycerol, 0.01% Triton X-100, 1 mM DTT, 5 nM DNA, room temp; recombinant protein; protein details: FLAG on Ino80; label: 5' 6-FAM on strand 1

AATTGGTCGTAGCAAGCTCTAGCACCGCTTAAACGCACGTACGCGCTGTC (double strand) [50-bp anisotropy DNA]
binding result [1]: binds | binding result [2]: binds more weakly

The exact form of at least one protein or probe is not confirmed. For some assays here: A weaker result is weaker than the reference pair of the same experiment. For some assays here: At least one verdict rests on a figure or table, not on a statement of the authors.
